# Source: article PMC3999280
# System: T1, LdtRSmc
# T1 sequence (looked up): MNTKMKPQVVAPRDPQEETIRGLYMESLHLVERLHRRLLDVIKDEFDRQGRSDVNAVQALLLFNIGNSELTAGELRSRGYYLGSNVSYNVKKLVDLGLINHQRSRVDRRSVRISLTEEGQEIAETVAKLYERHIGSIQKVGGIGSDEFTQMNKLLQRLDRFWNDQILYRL
# Test: EMSA
# Settings: EMSA: 50 mM Tris-HCl pH 7.2, 150 mM KCl, 10 mM MgCl2, 0.01% Triton X-100, 12.5 ng/uL each poly(dI-dC) and poly(dA-dT), 1 ng probe in 20 uL, 20 min at 37 C; recombinant protein; residues 1-170; protein details: N-terminal His6 removed by TEV; label: 5' biotin; probe letters rebuilt from the primers and the genome
row,Sequence,binding result
1,ACCACGGATGGTTTCTTCCTGCGGGTCTCTGGGCGCAACAACCTGCGGCTTCATCTTGGTGTTCATTTTCGTGCCTCACTGTTTCGTTTGGCGGTGTCTCTTTGTCTTCCCGCCTTGAGTGAGACCCTATCGAATACGTATAAAATTCTACTTAAACCGCAGCCTTAACATGAACTTACCGCGGACCGAGCCTGTCTCAGGGTGAATCAACCCTTACCTTCCGCACCTGGCGCAGTCGCTGATAGAGCAGCGCGGCCCGGAAAAGCACGAAGGTGACGGCGACGGATCCGTGGAGCACGATCAGCAAC (double strand) [PldtRSmc],binds
2,CGCGAGAAAGCATCAATTCCGTTCTTTTTCGACATAGTCCCACCGTCTCAATGCGCCAGAAGCGCGCTGCCCGAGCCCTAAAGCGCATAACGCGATGCGCTTTACGTCTTTGCATTCATGCAAGTCGCGTCCCAAAACCGATGTGCGCTTTTGGGCGACATGCATTAGCACGGTCATGGTTAACAAAGGTAAACCCCCGTGCCACCCGGCCCTCAAATCGCTTCACGTTCCCGCGAACAGAGCCGCCCCGGCAGGCGAGCCGCGCAACCGACCTCCGCCATATGGACGTAATCGCGCACCTACCGCACCCAAGCGTCGCTGTCACAGCAATATGGCCAATTCGTGTCTGCGCGCCGCCGGCGGGGCGCAGCGCTGCAACTACATGGCGCGAAAAGCAGCAAAGGTCGGACACGCAGGGATTGCGCCCGACCCTTGAGACTGAAGGTAAACCCGCC (double strand) [PldtPSmc],binds

# Where a protein sequence is shown, tags need not be part of it.
